Experimental data from patent US20170283857A1.
These are yes or no findings as the source states them, for the method shown. Binding seen in cells or lysates may run through a third protein. Some binding calls cover weakened binding; strength is not graded here. Sequences can lack the tags named with a protein. One block for each binder: values may come before it.

Columns and labels:
[1] = biological target: T1, GST-fused HYL1 (UniProt O04492); experiment: co-immunoprecipitation with GST-fused HYL1
T1 sequence (looked up): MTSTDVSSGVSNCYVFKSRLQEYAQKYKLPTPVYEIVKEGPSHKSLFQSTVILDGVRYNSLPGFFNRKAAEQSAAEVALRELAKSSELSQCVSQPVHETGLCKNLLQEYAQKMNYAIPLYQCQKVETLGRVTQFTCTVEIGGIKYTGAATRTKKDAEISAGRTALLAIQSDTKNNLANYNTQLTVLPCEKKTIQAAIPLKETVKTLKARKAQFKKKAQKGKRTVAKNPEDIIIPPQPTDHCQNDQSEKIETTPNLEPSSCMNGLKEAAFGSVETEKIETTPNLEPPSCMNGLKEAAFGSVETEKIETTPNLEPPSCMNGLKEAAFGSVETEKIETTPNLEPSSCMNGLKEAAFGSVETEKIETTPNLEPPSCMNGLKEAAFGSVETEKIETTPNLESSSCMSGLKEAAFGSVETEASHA

[2] = biological target: T2, HYL1-6Myc (from hyl1-2/35S-HYL1-6Myc transgenic plant) (UniProt O04492); experiment: co-immunoprecipitation from hyl1-2/35S-HYL1-6Myc plants with anti-MYC antibody
T2 sequence (looked up): T1 sequence (looked up)

[3] = biological target: T3, serrate (SE), endogenous (UniProt Q9ZVD0); experiment: co-immunoprecipitation from WT/35S-HIGLE-6Myc plants with anti-Myc antibody, SE detected with anti-SE antibody
T3 sequence (looked up): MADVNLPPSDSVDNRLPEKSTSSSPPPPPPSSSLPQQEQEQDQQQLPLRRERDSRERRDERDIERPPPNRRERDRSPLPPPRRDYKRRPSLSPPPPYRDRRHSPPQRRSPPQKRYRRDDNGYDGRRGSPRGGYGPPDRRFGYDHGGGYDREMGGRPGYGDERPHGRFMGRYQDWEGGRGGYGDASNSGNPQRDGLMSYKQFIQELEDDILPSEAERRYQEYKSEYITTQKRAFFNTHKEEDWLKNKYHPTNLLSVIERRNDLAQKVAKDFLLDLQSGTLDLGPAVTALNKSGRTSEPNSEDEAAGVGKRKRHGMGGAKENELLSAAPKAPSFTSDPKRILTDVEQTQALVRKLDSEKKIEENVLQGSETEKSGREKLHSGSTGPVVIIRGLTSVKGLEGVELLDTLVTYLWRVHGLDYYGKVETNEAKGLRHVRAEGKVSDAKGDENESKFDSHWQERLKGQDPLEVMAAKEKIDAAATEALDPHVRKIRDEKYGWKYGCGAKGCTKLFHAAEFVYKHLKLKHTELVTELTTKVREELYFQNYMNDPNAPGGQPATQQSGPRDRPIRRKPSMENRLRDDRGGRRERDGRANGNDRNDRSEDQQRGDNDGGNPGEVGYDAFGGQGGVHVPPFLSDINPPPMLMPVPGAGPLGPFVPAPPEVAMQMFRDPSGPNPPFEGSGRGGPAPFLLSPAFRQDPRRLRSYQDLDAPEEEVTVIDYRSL

binding [1]: binds
binding [2]: binds
B1: HIGLE (HYL1 interacting GIY-YIG-like endonuclease), untagged or construct not stated (enzyme)
chain: MREKRGNRKALDPVGEDGVTGKDGKGFFACYLLTSLSPRHKGQTYIGFTVNPRRRIRQHNGEITSGAWRTKKKRPWEMVLCIYGFPTNVSALQFEWAWQHPRESVAVREAAAAFKSFSGVASKIKLVYTMLNLPAWNSLNLTVNYFSSKYAHHGGKSPSLPLHMKVQVCAMEDLQYFTKVDDSSQPEDEESPEVNEEDDDDDDDDSSNLSQPGNSNTSSSDDRHFEKAKEPVTVFDEEDRLANFSGFGLLDEEETVEDEVSHITVGSIRATEKEPETVFNDRLASFTCFGLVEIVEDEVSHGTIGSTEAMEKECRKRRNHITSTTTEVDVEVIDLMTPSPSCRAGSSMKRRRVSEFIDLTMSPNFIES

binding [3]: binds
B2: HIGLE-6Myc (from WT/35S-HIGLE-6Myc transgenic plant) (enzyme, not shown: small tags and cut ends)
chain: B1 chain
